In paper PMC6138660:
These are yes or no findings as the source states them, for the method shown. In cells and extracts the contact can be indirect. Some binding calls cover weakened binding; strength is not graded here. Where a sequence is shown, tags or fusion partners need not be part of it.

How the values were obtained:
[1] = target: EB2, NanoBRET fusion (not stated (human or mouse cDNA cloned)) (UniProt Q15555); assay: FRET or BRET; NanoBRET in HEK293T cells transfected with 500 ng pHTNW-ORF (HaloTag) and 5 ng pNLF1W-ORF; corrected NanoBRET ratio
[2] = target: EB1, NanoBRET fusion (not stated (human or mouse cDNA cloned)) (UniProt Q15691); assay: as above

B1: RBM6, NanoBRET fusion (protein, UniProt P78332 1-1123)
chain: MWGDSRPANRTGPFRGSQEERFAPGWNRDYPPPPLKSHAQERHSGNFPGRDSLPFDFQGHSGPPFANVEEHSFSYGARDGPHGDYRGGEGPGHDFRGGDFSSSDFQSRDSSQLDFRGRDIHSGDFRDREGPPMDYRGGDGTSMDYRGREAPHMNYRDRDAHAVDFRGRDAPPSDFRGRGTYDLDFRGRDGSHADFRGRDLSDLDFRAREQSRSDFRNRDVSDLDFRDKDGTQVDFRGRGSGTTDLDFRDRDTPHSDFRGRHRSRTDQDFRGREMGSCMEFKDREMPPVDPNILDYIQPSTQDREHSGMNVNRREESTHDHTIERPAFGIQKGEFEHSETREGETQGVAFEHESPADFQNSQSPVQDQDKSQLSGREEQSSDAGLFKEEGGLDFLGRQDTDYRSMEYRDVDHRLPGSQMFGYGQSKSFPEGKTARDAQRDLQDQDYRTGPSEEKPSRLIRLSGVPEDATKEEILNAFRTPDGMPVKNLQLKEYNTGYDYGYVCVEFSLLEDAIGCMEANQGTLMIQDKEVTLEYVSSLDFWYCKRCKANIGGHRSSCSFCKNPREVTEAKQELITYPQPQKTSIPAPLEKQPNQPLRPADKEPEPRKREEGQESRLGHQKREAERYLPPSRREGPTFRRDRERESWSGETRQDGESKTIMLKRIYRSTPPEVIVEVLEPYVRLTTANVRIIKNRTGPMGHTYGFIDLDSHAEALRVVKILQNLDPPFSIDGKMVAVNLATGKRRNDSGDHSDHMHYYQGKKYFRDRRGGGRNSDWSSDTNRQGQQSSSDCYIYDSATGYYYDPLAGTYYDPNTQQEVYVPQDPGLPEEEEIKEKKPTSQGKSSSKKEMSKRDGKEKKDRGVTRFQENASEGKAPAEDVFKKPLPPTVKKEESPPPPKVVNPLIGLLGEYGGDSDYEEEEEEEQTPPPQPRTAQPQKREEQTKKENEEDKLTDWNKLACLLCRRQFPNKEVLIKHQQLSDLHKQNLEIHRKIKQSEQELAYLERREREGKFKGRGNDRREKLQSFDSPERKRIKYSRETDSDRKLVDKEDIDTSSKGGCVQQATGWRKGTGLGYGHPGLASSEEAEGRMRGPSVGASGRTSKRQSNETYRDAVRRVMFARYKELD
binding [1]: binds | binding [2]: no binding
